This is an account of results in paper PMC4398349.

No constants are given. Whether binding was seen depends on the method and setting. In cells and extracts the contact can be indirect. Binding can be weak; no strength is given. Sequences can lack the tags named with a protein.

This assay has as its target Cdc10-mCherry (C. albicans septin Cdc10 tagged at its chromosomal locus) (Candida albicans). Nature of the assay: co-IP; RFP-Trap on Cdc10-mCherry from 1 mg of yeast or hyphal extract of ACE2, ace2Δ/Δ, ace2L/ace2Δ and ace2S/ace2Δ strains; lysis buffer 50 mM Tris-HCl pH 7.8, 250 mM potassium acetate, 2 mM MgCl2, 0.5 mM EGTA, 0.8% Triton X-100; washes with 500 mM and 1 M potassium acetate; blots with anti-RFP, anti-GFP, anti-Cdc11.

B1: Sep7-GFP (C. albicans septin Sep7/Shs1 tagged at its chromosomal locus) (protein, UniProt Q59VX8 1-670)
chain: MSRFDYRNTSKNTSVVDPDHSSPIINYRKDAKKGIKFTFMVVGESGTGKTTFINSLLNKKVLNHRYEKLSPTVGDTKTLMFTSAKSVALPNTSILTKNEFNPRTINEEPGIALTETHIEIIDDDNQKLLLNIIDTPGFGENLNNELCFIEIENYLKQQFDLVLAEETRIKRNPRFVDTRVHVMLYFITPTGHGLREIDIQCMKRLSKYVNIIPVIGKADSFTLNELQHFKQQIRIDIQKFNVPTFQFDNSLNDYDEDEDYDLIQECKFLTNLQPFAVVTSEDVFEVRESTTSTKGNNDKPKIIRARKYPWGLVDINDTRYSDFPILKSVLLGSHLQDLKDLTHDFLYETYRTERLTKVTGNGQAFDDEENEDAEFHDTVEHQLNDSNRGVGGDDNNNNNNNNNNASTIPSMSNLAQLTTSTNEHDASHIDNNSITSTSSSIKKSTSMLIDDHPSSSPKLKNISSFTSSTSTVSLEGGEKEGGHHDRGANSTSTNNNNNNNAFKRLSIGPQRNQLRQISETVPYVLRHERILERQQKLEEMEQASARELANRAALLEKKAAQLKAKEKALRQLELNRQKQEESATSSLHRKDSDISGSVQSGGVDDGKSESTNNNNNNRNGYGYGHGHGHGQSHEYDNSEYHHDDSTPNYETSRLQKDETLTDLHSIVSNH
Regarding B1, the binding result is given as “binds”.

B2: Cdc11 (C. albicans septin, endogenous) (protein, UniProt G1UB61 1-402)
chain: MNYSTENVSSAALRKRKTLKKSINFSIMIIGESGSGRSTLINTLCGGNSIVPTSSTATQDPFTKKLTLRHENVELEDNEGHKISLNIIDTPNFANSINCDDDFKIIVDFIRHQFDEVLLEESRVKRNPRFKDGRIHVLIYMINPTGHGLSDIDVKFLQHVNNLVNIIPIISKADSLTPKELKLNKELILEDLNNYGINFYKFNEYDYEQDYIDEEIIEYNKYLNSLIPFAIIGANEYRSNPNGSEDEDDILKLRILNKDFKPIDIDNAEINDFTILKNVLLVTHLNEFKDITHDSIYENYRTEALSGKQFQYVNKDSAKQEISESDYLMKEEQIKLEEERLRKFEERVHQDLINKRKELLERENELKEIEKRLLAEGLKFDENGDVVKVHEEESSENEVKVI
Take B2: the binding entry was “binds”.
